Data from ChEMBL document CHEMBL1909046, “DrugMatrix in vitro pharmacology data”.

By UniProt entry, the sequences of proteins in these tests, tags left out. Where a name states a change or a piece, a line headed by the entry shows the natural chain unless it says otherwise.
UniProt Q12809: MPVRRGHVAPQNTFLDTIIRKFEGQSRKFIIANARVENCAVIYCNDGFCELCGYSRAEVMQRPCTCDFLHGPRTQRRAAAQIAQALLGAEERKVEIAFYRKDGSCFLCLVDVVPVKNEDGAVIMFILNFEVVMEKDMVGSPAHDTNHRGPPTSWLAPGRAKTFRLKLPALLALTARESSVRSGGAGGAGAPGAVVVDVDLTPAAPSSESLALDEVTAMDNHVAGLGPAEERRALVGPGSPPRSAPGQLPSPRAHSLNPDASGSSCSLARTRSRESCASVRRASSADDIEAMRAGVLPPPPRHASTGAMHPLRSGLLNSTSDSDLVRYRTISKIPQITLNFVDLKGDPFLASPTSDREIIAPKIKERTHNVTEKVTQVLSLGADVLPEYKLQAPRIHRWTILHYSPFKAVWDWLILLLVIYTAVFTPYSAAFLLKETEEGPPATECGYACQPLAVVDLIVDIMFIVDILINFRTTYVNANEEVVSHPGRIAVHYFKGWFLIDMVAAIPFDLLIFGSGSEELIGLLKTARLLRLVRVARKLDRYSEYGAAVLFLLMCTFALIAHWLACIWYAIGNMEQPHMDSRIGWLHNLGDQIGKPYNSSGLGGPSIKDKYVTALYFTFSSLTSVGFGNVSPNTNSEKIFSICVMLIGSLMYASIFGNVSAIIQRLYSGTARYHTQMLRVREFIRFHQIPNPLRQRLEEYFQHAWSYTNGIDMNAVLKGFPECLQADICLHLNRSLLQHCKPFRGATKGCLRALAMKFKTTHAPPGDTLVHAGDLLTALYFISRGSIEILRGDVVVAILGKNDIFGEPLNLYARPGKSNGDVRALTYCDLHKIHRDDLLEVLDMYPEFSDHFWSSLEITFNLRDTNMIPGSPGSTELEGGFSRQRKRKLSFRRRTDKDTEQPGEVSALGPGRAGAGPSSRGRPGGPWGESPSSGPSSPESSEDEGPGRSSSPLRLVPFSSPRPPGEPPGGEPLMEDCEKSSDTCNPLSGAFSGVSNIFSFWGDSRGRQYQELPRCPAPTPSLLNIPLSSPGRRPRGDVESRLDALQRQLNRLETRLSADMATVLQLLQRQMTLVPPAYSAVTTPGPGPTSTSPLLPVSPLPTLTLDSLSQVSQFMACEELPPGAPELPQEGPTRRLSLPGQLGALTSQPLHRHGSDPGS
UniProt P10635, whole entry: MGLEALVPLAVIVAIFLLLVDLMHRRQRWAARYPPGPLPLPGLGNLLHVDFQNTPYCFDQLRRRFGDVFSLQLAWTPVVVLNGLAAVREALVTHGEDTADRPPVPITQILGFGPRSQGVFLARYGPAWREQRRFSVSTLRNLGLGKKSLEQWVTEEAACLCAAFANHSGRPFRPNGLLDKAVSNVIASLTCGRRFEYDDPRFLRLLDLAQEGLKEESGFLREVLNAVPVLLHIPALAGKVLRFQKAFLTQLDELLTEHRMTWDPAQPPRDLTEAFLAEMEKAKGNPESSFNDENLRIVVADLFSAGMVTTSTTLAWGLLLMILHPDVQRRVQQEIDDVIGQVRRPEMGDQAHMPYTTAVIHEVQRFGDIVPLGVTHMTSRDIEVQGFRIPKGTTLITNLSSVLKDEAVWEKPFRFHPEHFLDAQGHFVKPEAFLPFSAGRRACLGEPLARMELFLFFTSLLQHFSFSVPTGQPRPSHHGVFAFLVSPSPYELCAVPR
UniProt P11712, whole entry: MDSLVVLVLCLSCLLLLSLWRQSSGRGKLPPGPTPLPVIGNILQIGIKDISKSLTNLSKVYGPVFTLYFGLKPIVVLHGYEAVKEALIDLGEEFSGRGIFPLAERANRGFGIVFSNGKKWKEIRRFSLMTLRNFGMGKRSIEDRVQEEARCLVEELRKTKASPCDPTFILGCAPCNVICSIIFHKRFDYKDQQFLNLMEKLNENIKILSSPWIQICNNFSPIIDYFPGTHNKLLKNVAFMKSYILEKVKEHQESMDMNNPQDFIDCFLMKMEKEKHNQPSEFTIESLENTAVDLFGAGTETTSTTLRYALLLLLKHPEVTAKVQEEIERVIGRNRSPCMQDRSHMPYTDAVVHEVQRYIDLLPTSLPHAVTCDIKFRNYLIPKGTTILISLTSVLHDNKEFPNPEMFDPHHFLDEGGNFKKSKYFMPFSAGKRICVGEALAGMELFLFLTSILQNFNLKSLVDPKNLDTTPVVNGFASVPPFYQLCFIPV

Assays:
[1] = DRUGMATRIX: Platelet-Derived Growth Factor (PDGF) radioligand binding (ligand: [125I] PDGF); type: cell-based; details: nih3t3; Not Active = under 50% inhibition at 10 µM
[2] = biological target: Voltage-gated inwardly rectifying potassium channel KCNH2 (Homo sapiens, UniProt Q12809); details: hek293; note: in other assays of this panel Not Active means under 50% inhibition at 10 µM
Cytochrome P450 2A6 = biological target: T1, Cytochrome P450 2A6 (Homo sapiens, UniProt P11509); details: bti-tn-5b1-4; note: in other assays of this panel Not Active means under 50% inhibition at 10 µM
T1 sequence (P11509 whole entry): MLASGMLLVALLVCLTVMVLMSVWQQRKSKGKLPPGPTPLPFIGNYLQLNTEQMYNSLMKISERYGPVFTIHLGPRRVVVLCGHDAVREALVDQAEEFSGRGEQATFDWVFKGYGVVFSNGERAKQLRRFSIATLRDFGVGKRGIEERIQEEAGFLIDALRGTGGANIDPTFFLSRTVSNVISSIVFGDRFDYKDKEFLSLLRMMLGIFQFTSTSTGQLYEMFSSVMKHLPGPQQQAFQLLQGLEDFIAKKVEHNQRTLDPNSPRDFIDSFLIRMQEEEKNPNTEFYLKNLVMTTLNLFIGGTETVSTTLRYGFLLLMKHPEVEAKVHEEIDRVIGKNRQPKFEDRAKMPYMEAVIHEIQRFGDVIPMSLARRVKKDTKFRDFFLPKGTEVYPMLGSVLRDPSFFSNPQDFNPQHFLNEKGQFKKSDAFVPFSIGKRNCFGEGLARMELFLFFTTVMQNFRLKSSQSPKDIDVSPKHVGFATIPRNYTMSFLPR

Cytochrome P450 2D6 = Cytochrome P450 2D6 (Homo sapiens, UniProt P10635); note: in other assays of this panel Not Active means under 50% inhibition at 10 µM
Cytochrome P450 2C9 = Cytochrome P450 2C9 (Homo sapiens, UniProt P11712); details: bti-tn-5b1-4; note: in other assays of this panel Not Active means under 50% inhibition at 10 µM

CCC(C)C(C(=O)OCC[N+](C)(CC)CC)c1ccccc1.[Br-] (centres undefined) [VALETHAMATE BROMIDE]
Not Active: IC50 [1] | Ki [1] | IC50 [2] | Ki [2] | IC50 (Cytochrome P450 2A6) | Ki (Cytochrome P450 2A6) | IC50 (Cytochrome P450 2C9) | Ki (Cytochrome P450 2C9)
249 nM: IC50 (Cytochrome P450 2D6)
